These are yes or no findings as the source states them, for the method shown. Binding calls can cover weak binding; strength is not graded here.
B1: PDS5B (recombinant, unlabelled) (protein, UniProt Q9NTI5 1-1447)
chain: MAHSKTRTNDGKITYPPGVKEISDKISKEEMVRRLKMVVKTFMDMDQDSEEEKELYLNLALHLASDFFLKHPDKDVRLLVACCLADIFRIYAPEAPYTSPDKLKDIFMFITRQLKGLEDTKSPQFNRYFYLLENIAWVKSYNICFELEDSNEIFTQLYRTLFSVINNGHNQKVHMHMVDLMSSIICEGDTVSQELLDTVLVNLVPAHKNLNKQAYDLAKALLKRTAQAIEPYITNFFNQVLMLGKTSISDLSEHVFDLILELYNIDSHLLLSVLPQLEFKLKSNDNEERLQVVKLLAKMFGAKDSELASQNKPLWQCYLGRFNDIHVPIRLECVKFASHCLMNHPDLAKDLTEYLKVRSHDPEEAIRHDVIVSIVTAAKKDILLVNDHLLNFVRERTLDKRWRVRKEAMMGLAQIYKKYALQSAAGKDAAKQIAWIKDKLLHIYYQNSIDDRLLVERIFAQYMVPHNLETTERMKCLYYLYATLDLNAVKALNEMWKCQNLLRHQVKDLLDLIKQPKTDASVKAIFSKVMVITRNLPDPGKAQDFMKKFTQVLEDDEKIRKQLEVLVSPTCSCKQAEGCVREITKKLGNPKQPTNPFLEMIKFLLERIAPVHIDTESISALIKQVNKSIDGTADDEDEGVPTDQAIRAGLELLKVLSFTHPISFHSAETFESLLACLKMDDEKVAEAALQIFKNTGSKIEEDFPHIRSALLPVLHHKSKKGPPRQAKYAIHCIHAIFSSKETQFAQIFEPLHKSLDPSNLEHLITPLVTIGHIALLAPDQFAAPLKSLVATFIVKDLLMNDRLPGKKTTKLWVPDEEVSPETMVKIQAIKMMVRWLLGMKNNHSKSGTSTLRLLTTILHSDGDLTEQGKISKPDMSRLRLAAGSAIVKLAQEPCYHEIITLEQYQLCALAINDECYQVRQVFAQKLHKGLSRLRLPLEYMAICALCAKDPVKERRAHARQCLVKNINVRREYLKQHAAVSEKLLSLLPEYVVPYTIHLLAHDPDYVKVQDIEQLKDVKECLWFVLEILMAKNENNSHAFIRKMVENIKQTKDAQGPDDAKMNEKLYTVCDVAMNIIMSKSTTYSLESPKDPVLPARFFTQPDKNFSNTKNYLPPEMKSFFTPGKPKTTNVLGAVNKPLSSAGKQSQTKSSRMETVSNASSSSNPSSPGRIKGRLDSSEMDHSENEDYTMSSPLPGKKSDKRDDSDLVRSELEKPRGRKKTPVTEQEEKLGMDDLTKLVQEQKPKGSQRSRKRGHTASESDEQQWPEEKRLKEDILENEDEQNSPPKKGKRGRPPKPLGGGTPKEEPTMKTSKKGSKKKSGPPAPEEEEEEERQSGNTEQKSKSKQHRVSRRAQQRAESPESSAIESTQSTPQKGRGRPSKTPSPSQPKKNVRVGRSKQAATKENDSSEEVDVFQGSSPVDDIPQEETEEEEVSTVNVRRRSAKRERR
B2: PDS5A labelled with JF646 (protein, UniProt Q29RF7 1-1337)
chain: MDFTAQPKPATALCGVVSADGKIAYPPGVKEITDKITTDEMIKRLKMVVKTFMDMDQDSEDEKQQYLPLALHLASEFFLRNPNKDVRLLVACCLADIFRIYAPEAPYTSHDKLKDIFLFITRQLKGLEDTKSPQFNRYFYLLENLAWVKSYNICFELEDCNEIFIQLFRTLFSVINNSHNKKVQMHMLDLMSSIIMEGDGVTQELLDSILINLIPAHKNLNKQSFDLAKVLLKRTVQTIEACIANFFNQVLVLGRSSVSDLSEHVFDLIQELFAIDPHLLLSVMPQLEFKLKSNDGEERLAVVRLLAKLFGSKDSDLATQNRPLWQCFLGRFNDIHVPVRLESVKFASHCLMNHPDLAKDLTEYLKVRSHDPEEAIRHDVIVTIITAAKRDLALVNDQLLGFVRERTLDKRWRVRKEAMMGLAQLYKKYCLHGEAGKEAAEKVSWIKDKLLHIYYQNSIDDKLLVEKIFAQYLVPHNLETEERMKCLYYLYASLDPNAVKALNEMWKCQNMLRSHVRELLDLHKQPTSEANCSAMFGKLMTIAKNLPDPGKAQDFVKKFNQVLGDDEKLRSQLELLISPTCSCKQADICVREIARKLANPKQPTNPFLEMVKFLLERIAPVHIDSEAISALVKLMNKSIEGTADDEEEGVSPDTAIRSGLELLKVLSFTHPTSFHSAETYESLLQCLRMEDDKVAEAAIQIFRNTGHKIETDLPQIRSTLIPILHQKAKRGTPHQAKQAVHCIHAIFTNKEVQLAQIFEPLSRSLNADVPEQLITPLVSLGHISMLAPDQFASPMKSVVANFIVKDLLMNDRSTGEKNGKLWSPDEEVSPEVLAKVQAIKLLVRWLLGMKNNQSKSANSTLRLLSAMLVSEGDLTEQKRISKSDMSRLRLAAGSAIMKLAQEPCYHEIITPEQFQLCALVINDECYQVRQIFAQKLHKALVKLLLPLEYMAIFALCAKDPVKERRAHARQCLLKNISIRREYIKQNPMATEKLLSLLPEYVVPYMIHLLAHDPDFTRSQDVDQLRDIKECLWFMLEVLMTKNENNSHAFMKKMAENIKLTRDAQSPDESKTNEKLYTVCDVALCVINSKSALCNADSPKDPVLPMKFFTQPEKDFCNDKSYISEETRVLLLTGKPKPAGVLGAVNKPLSATGRKPYVRSTGTETGSNINVNSELNPSTGNRSREQSSEAAETGVSENEENPVRIISVTPVKNIDPVKNKEINSDQATQGNISSDRGKKRTVTAAGAENIQQKTDEKVDESGPPAPSKPRRGRRPKSESQGNATKNDDLNKPINKGRKRAAVGQESPGGLEAGNAKAPKLQDLAKKAAPAERQIDLQR
modifications: JF646-HaloTag ligand on the HaloTag
B3: PDS5B labelled with JF646 (protein, UniProt Q9NTI5 1-1447)
chain: B1 chain
modifications: JF646-HaloTag ligand on the HaloTag

How the values were obtained:
[1] = molecular target: recombinant cohesin (c357), tetrameric (human); assay: mass photometry
[2] = molecular target: HeLa cohesin (unlabelled cohesin-STAG1) (human (endogenous in HeLa)); assay: single-molecule fluorescence imaging of DNA loop extrusion

Row | Binder | binding [1] | binding [2]
1 | B1 | binds | 
2 | B2 |  | binds
3 | B3 |  | binds

From doi:10.1101/2025.08.30.673243
